Assay results reported in article PMC7229849.
These are yes or no findings as the source states them, for the method shown. Binding seen in cells or lysates may run through a third protein. Some entries that bind do so weakly or less than the wild type. Sequences can lack the tags named with a protein.

The chains behind the UniProt entries cited, without tags or fusion partners. Where a name states a change or a piece, a line headed by the entry shows the natural chain unless it says otherwise. A line that says so, or that is headed by a name, gives the form on record, which may keep a tag or linker.
Tcf4L (long isoform of Tcf4), myc-tagged (P15884-3, form named): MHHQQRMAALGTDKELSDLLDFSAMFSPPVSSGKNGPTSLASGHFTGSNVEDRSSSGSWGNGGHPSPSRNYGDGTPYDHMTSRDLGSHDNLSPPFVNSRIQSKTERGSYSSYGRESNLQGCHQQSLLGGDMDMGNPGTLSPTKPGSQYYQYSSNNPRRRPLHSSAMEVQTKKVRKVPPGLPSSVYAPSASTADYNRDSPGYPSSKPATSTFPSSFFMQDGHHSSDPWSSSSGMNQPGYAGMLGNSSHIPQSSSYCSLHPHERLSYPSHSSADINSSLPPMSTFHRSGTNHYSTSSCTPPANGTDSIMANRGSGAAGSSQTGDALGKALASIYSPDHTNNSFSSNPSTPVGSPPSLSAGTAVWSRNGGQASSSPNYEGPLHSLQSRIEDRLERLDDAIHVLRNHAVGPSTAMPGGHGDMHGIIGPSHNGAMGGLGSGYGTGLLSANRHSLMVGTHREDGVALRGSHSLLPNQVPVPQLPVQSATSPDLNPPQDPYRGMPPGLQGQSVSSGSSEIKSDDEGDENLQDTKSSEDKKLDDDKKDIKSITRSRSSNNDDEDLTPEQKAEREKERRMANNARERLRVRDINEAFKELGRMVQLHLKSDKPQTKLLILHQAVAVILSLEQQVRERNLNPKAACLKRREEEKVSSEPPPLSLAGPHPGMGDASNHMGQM

T1: Olig2 (UniProt Q9EQW6)
T1 sequence: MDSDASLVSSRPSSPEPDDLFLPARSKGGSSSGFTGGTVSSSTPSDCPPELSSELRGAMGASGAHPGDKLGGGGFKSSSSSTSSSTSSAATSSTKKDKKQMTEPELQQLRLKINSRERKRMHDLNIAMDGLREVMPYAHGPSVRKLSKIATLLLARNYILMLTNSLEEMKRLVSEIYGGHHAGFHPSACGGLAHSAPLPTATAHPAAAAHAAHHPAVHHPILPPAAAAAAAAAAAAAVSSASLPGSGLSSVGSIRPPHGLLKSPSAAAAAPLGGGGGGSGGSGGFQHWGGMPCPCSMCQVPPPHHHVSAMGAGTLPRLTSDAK

T2: Ascl1, T7-tagged (UniProt Q02067)
T2 sequence: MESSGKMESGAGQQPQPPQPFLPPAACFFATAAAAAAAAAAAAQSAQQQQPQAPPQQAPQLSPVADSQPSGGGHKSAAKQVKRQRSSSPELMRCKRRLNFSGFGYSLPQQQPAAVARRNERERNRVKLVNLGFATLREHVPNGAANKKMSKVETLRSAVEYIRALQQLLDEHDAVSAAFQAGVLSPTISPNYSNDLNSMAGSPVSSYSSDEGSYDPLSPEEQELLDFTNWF

T3: Olig1, T7-tagged (UniProt Q9WUQ3)
T3 sequence: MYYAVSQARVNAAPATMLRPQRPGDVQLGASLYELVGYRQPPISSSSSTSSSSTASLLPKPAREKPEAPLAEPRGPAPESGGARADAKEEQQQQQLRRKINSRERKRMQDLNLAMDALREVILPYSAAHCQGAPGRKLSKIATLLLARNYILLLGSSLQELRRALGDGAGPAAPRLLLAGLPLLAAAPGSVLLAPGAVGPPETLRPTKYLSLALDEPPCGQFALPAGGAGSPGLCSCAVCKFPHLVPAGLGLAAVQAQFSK

B1: Tcf3, myc-tagged (protein, UniProt P15806-2 1-648)
chain: MMNQSQRMAPVGSDKELSDLLDFSMMFPLPVANGKSRPASLGGTQFAGSGLEDRPSSGSWGSSDQNSSSFDPSRTYSEGAHFSDSHSSLPPSTFLGAGLGGKGSERNAYATFGRDTSVGTLSQAGFLPGELSLSSPGPLSPSGIKSSSQYYPSFPSNPRRRAADGGLDTQPKKVRKVPPGLPSSVYPPSSGDSYSRDAAAYPSAKTPSSAYPSPFYVADGSLHPSAELWSTPSQVGFGPMLGDGSSPLPLAPGSSSVGSGTFGGLQQQDRMGYQLHGSEVNGSLPAVSSFSAAPGTYSGTSGHTPPVSGAAAESLLGTRGTTASSSGDALGKALASIYSPDHSSNNFSPSPSTPVGSPQGLPGTSQWPRAGAPSALSPNYDAGLHGLSKMEDRLDEAIHVLRSHAVGTASDLHGLLPGHGALTTSFTGPMSLGGRHAGLVGGSHPEEGLTSGASLLHNHASLPSQPSSLPDLSQRPPDSYSGLGRAGTTAGASEIKREEKEDEEIASVADAEEDKKDLKVPRTRTSSTDEVLSLEEKDLRDRERRMANNARERVRVRDINEAFRELGRMCQLHLKSDKAQTKLLILQQAVQVILGLEQQVRERNLNPKAACLKRREEEKVSGVVGDPQLALSAAHPGLGEAHNPAGHL

How the values were obtained:
Olig2 = molecular target: T1, Olig2; assay: co-IP; the same extracts of transfected Hek293 cells; precipitation with rabbit anti-Olig2 antiserum and protein A sepharose; western blot with anti-myc monoclonal
Ascl1, T7-tagged = molecular target: T2, Ascl1, T7-tagged; assay: co-IP; extracts of transfected Hek293 cells with T7-tagged Olig1 or T7-tagged Ascl1 alone or with one myc-tagged class I bHLH protein; precipitation with mouse anti-T7 monoclonal and protein A sepharose; western blot with anti-myc monoclonal
Olig1, T7-tagged = molecular target: T3, Olig1, T7-tagged; assay: as above

Molecule	binding (Olig2)	binding (Ascl1, T7-tagged)	binding (Olig1, T7-tagged)
Tcf4L (long isoform of Tcf4), myc-tagged (from UniProt P15884-3 1-671)	binds	binds	binds
Tcf12, myc-tagged (from UniProt P51514-1 1-707)	–	binds	binds
B1	binds	–	binds
